The subject of this experiment is CD2F1 mice, L1210 leukemia ip, survival T/C. Description: NCI In Vivo Anticancer Drug Screen. Data for tumor model L1210 Leukemia (intraperitoneal) in CD2F1 (CDF1) mice. The following applies: higher T/C = longer survival. In a few lines: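 Read-out first: treated-group measurement over vehicle-control measurement, expressed as a ratio. Animals bore a transplanted tumor line and were dosed with compound or vehicle.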

Where [1] appears, read: T/C endpoint: mean survival time, dose: 200.0 mg/kg/injection, schedule: Q01DX009 (ip), vehicle: saline.
Setting [2] is: T/C endpoint: mean survival time, dose: 400.0 mg/kg/injection, schedule: Q01DX009 (ip), vehicle: saline with Tween-80.
Setting [3] is: T/C endpoint: mean survival time, dose: 25.0 mg/kg/injection, schedule: Q01DX001 (ip), vehicle: saline with Tween-80.
Setting [4] is: T/C endpoint: mean survival time, dose: 100.0 mg/kg/injection, schedule: Q01DX001 (ip), vehicle: saline with Tween-80.
The mark [5] stands for this setting: T/C endpoint: mean survival time, dose: 200.0 mg/kg/injection, schedule: Q01DX001 (ip), vehicle: saline with Tween-80.
[6] abbreviates: T/C endpoint: mean survival time, dose: 400.0 mg/kg/injection, schedule: Q01DX001 (ip), vehicle: saline with Tween-80.
[7] abbreviates: T/C endpoint: mean survival time, dose: 100.0 mg/kg/injection, schedule: Q04DX003 (ip), vehicle: saline with Tween-80.
Setting [8] is: T/C endpoint: mean survival time, dose: 200.0 mg/kg/injection, schedule: Q04DX003 (ip), vehicle: saline with Tween-80.
Setting [9] is: T/C endpoint: mean survival time, dose: 400.0 mg/kg/injection, schedule: Q04DX003 (ip), vehicle: saline with Tween-80.
Setting [10] is: T/C endpoint: mean survival time, dose: 200.0 mg/kg/injection, schedule: Q01DX001 (ip), vehicle: saline.
Setting [11] is: T/C endpoint: mean survival time, dose: 400.0 mg/kg/injection, schedule: Q01DX001 (ip), vehicle: saline.
Where [12] appears, read: T/C endpoint: mean survival time, dose: 50.0 mg/kg/injection, schedule: Q01DX009 (ip), vehicle: saline with Tween-80.
Where [13] appears, read: T/C endpoint: mean survival time, dose: 100.0 mg/kg/injection, schedule: Q01DX009 (ip), vehicle: saline with Tween-80.
Setting [14] is: T/C endpoint: mean survival time, dose: 100.0 mg/kg/injection, schedule: Q01DX009 (ip), vehicle: saline.
Where [15] appears, read: T/C endpoint: mean survival time, dose: 200.0 mg/kg/injection, schedule: Q01DX009 (ip), vehicle: saline with Tween-80.

The list is a part of this screen's results and no random one: it is rich in T/C values a quarter to a half above the control, in often repeated tests (any T/C) and in doses without a T/C. Further doses and runs are listed elsewhere. T/C is the treated group as % of the vehicle group. Some entries give survivors of the animals treated and no T/C: the source holds a T/C of zero for them, seemingly a mark for toxic or unscored doses. Some doses without a T/C left all or most animals alive at the check, yet need not have been tolerated: the source hardly ever lists a survival T/C far under the control, and the zero likely stands for such cases as well. Survivors were counted at the toxicity check, usually on the fifth day, unless a day is given; later deaths do not show. Schedules are NCI's codes, read here as Q, the interval in days (D) or hours (H), X, the number of doses. Some doses were run more than once; the results are listed from low to high. Where survival is the endpoint, the PubChem record calls one and a half times the control and up active, and a quarter to a half above the control has no call in these data; cut-offs in other NCI protocols can differ. Some T/C values carry the count of animals alive at the toxicity check (mostly the fifth day); without a count, all were alive then.

For the compound `NC1=NCN(C2OC(COC(=O)c3ccccc3)C(OC(=O)c3ccccc3)C2OC(=O)c2ccccc2)C(=O)N1` (stereo unspecified), the T/C under setting [1] is 135 % of control.
Turning to `O=C(O)c1ccccc1C(=O)Nc1cc(C(F)(F)F)ccc1Cl`, the survivor count under setting [2] is recorded as 2 of 6.
Consider `[Cl][Sb]([c]1ccccc1)([c]1ccccc1)([c]1ccccc1)[c]1ccccc1`, for which the survivor count (T/C endpoint: mean survival time, dose: 18.8 mg/kg/injection, schedule: Q04DX003 (ip), vehicle: saline) is recorded as 2 of 6.
For `C[Si](C)(C)OC1(C#N)C=CC(=O)C=C1`, the survivor count by setting is: (T/C endpoint: mean survival time, dose: 12.5 mg/kg/injection, schedule: Q01DX001 (ip), vehicle: saline with Tween-80) 0 of 3; under setting [3], 0 of 3; under setting [4], 0 of 3; under setting [5], 0 of 3; under setting [6], 0 of 3.
For `CCCCCCCCCCCCCCCCCCNC(=O)C[N+](C)(C)Cc1ccccc1`, the survivor count is, setting by setting: (T/C endpoint: mean survival time, dose: 25.0 mg/kg/injection, schedule: Q04DX003 (ip), vehicle: saline with Tween-80) 6 of 6; under setting [7], 6 of 6; under setting [8], 3 of 6; under setting [9], 0 of 6.
As to `N#C/C(=C\c1ccc(-c2ccccc2)cc1)c1ccccc1`, the survivor count under setting [7] is 6 of 6.
On to `COc1ccc(C(C(N)=O)N2CCCC2)cc1` (stereo unspecified), for which, under setting [2], the survivor count is reported as 4 of 6.
With `COCn1cnc2c(F)ncnc21`, the survivor count was 3 of 6 under setting [7], 0 of 6 under setting [8] and 0 of 6 under setting [9].
Turning to `C#CC1(NC(=O)NC(C)(C)C)CCCCC1`, under setting [2], the survivor count is 2 of 3.
As to `N=C(N)c1cc(Cl)c(OCc2ccccc2)c(Cl)c1`, the survivor count under setting [7] is given as 4 of 6.
With `CC1(C)COCN1COCCOCN1COCC1(C)C`, under setting [1], the survivor count is 2 of 10 and 3 of 6.
For the compound `NC(=S)c1ccc(C(N)=S)cc1`, the survivor count (T/C endpoint: mean survival time, dose: 400.0 mg/kg/injection, schedule: Q01DX001 (ip), vehicle: Klucel (hydroxypropylcellulose) (HPC)) is listed as 1 of 3.
As to `O=S(=O)(NC(=S)Nc1ccc(Cl)cc1)c1ccccc1`, under setting [2], the survivor count is 0 of 6.
For `CC[C@@]1(O)C(=O)OCc2c1cc1n(c2=O)Cc2c-1nc1ccccc1c2Cl`, the T/C was 127 % of control (T/C endpoint: mean survival time, dose: 12.5 mg/kg/injection, schedule: Q01DX001 (ip), vehicle: saline); 138 % of control under setting [3]; 133 % of control (T/C endpoint: mean survival time, dose: 25.0 mg/kg/injection, schedule: Q01DX001 (ip), vehicle: saline); 129 % of control (T/C endpoint: mean survival time, dose: 50.0 mg/kg/injection, schedule: Q01DX001 (ip), vehicle: saline with Tween-80); 131 % of control (T/C endpoint: mean survival time, dose: 50.0 mg/kg/injection, schedule: Q01DX001 (ip), vehicle: saline); 130 % of control under setting [4]. Moreover, the T/C (T/C endpoint: mean survival time, dose: 100.0 mg/kg/injection, schedule: Q01DX001 (ip), vehicle: saline) was 143 % of control; the T/C under setting [5] is 138 % of control [5 of 6 alive]; the T/C under setting [10] was 137 % of control; the T/C under setting [11] was 141 % of control.
As for `[Cl][Pt+2][Cl].[NH-]c1ccccc1C(F)(F)F.[NH-]c1ccccc1C(F)(F)F`, the survivor count (T/C endpoint: mean survival time, dose: 200.0 mg/kg/injection, schedule: Q04DX003 (ip), vehicle: distilled water + Tween-80) is given as 2 of 6.
For the compound `CC(=O)C(C(C)=O)c1ccc([N+](=O)[O-])cc1[N+](=O)[O-].CC(=O)C(C(C)=O)c1ccc([N+](=O)[O-])cc1[N+](=O)[O-].[Cu]`, the survivor count (T/C endpoint: median survival time, dose: 200.0 mg/kg/injection, schedule: Q04DX002 (ip), vehicle: saline with Tween-80) is 3 of 3.
As to `S=c1nc[nH]c2c1ncn2CN1CCCCC1`, the T/C was 137 % of control under setting [12] and 148 % of control under setting [13].
Turning to `NCCCCC1(CCCCN)OCCO1`, the survivor count runs as follows: under setting [14], 2 of 6; (T/C endpoint: mean survival time, dose: 100.0 mg/kg/injection, schedule: Q04DX002 (ip), vehicle: saline) 0 of 3; under setting [5], 0 of 6; under setting [6], 0 of 6.
As to `CC12CCCCC1=C/C(=N/NC(N)=O)CC2` (stereo unspecified), the survivor count under setting [13] is 4 of 6, the survivor count under setting [15] is listed as 0 of 6 and the survivor count under setting [2] is 0 of 6.
Regarding `CCCCN(C)CCNc1cc(C)nc(Nc2nc3ccc(Cl)cc3[nH]2)n1`, the T/C reads like this: (T/C endpoint: mean survival time, dose: 12.5 mg/kg/injection, schedule: Q01DX009 (ip), vehicle: saline with Tween-80) 143 % of control; (T/C endpoint: mean survival time, dose: 25.0 mg/kg/injection, schedule: Q01DX009 (ip), vehicle: saline with Tween-80) 147 % of control; under setting [12], 135 % of control. For the same compound, the survivor count is reported as 2 of 6 under setting [13], 0 of 6 under setting [15] and 0 of 6 under setting [6].
For the compound `NC(=S)N=Nc1c(O)cc(O)c2[nH]c(=O)ccc12`, the survivor count was 3 of 6 under setting [10] and 0 of 6 under setting [11].
For `CC([NH-])C(=O)O.CC([NH-])C(=O)O.CC([NH-])C(=O)O.[Co+3]` (stereo unspecified), the survivor count is, setting by setting: under setting [14], 5 of 6; (T/C endpoint: mean survival time, dose: 200.0 mg/kg/injection, schedule: Q04DX002 (ip), vehicle: saline with Tween-80) 0 of 3; (T/C endpoint: mean survival time, dose: 400.0 mg/kg/injection, schedule: Q04DX002 (ip), vehicle: saline with Tween-80) 0 of 3. Besides, the T/C (T/C endpoint: mean survival time, dose: 100.0 mg/kg/injection, schedule: Q04DX002 (ip), vehicle: saline with Tween-80) is 144 % of control.
As for `C=C1C[C@@H](O)[C@H](O)[C@@]2(C)C[C@@H]3OC(=O)C(=C)[C@@H]3C[C@H]12`, the survivor count is on record as 2 of 6 under setting [15] and 0 of 6 under setting [2].
Regarding `O=S(=O)(F)c1ccccc1`, the survivor count was 1 of 6 under setting [8] and 0 of 6 under setting [9].
On to `ClC1CC[N-]CC1.ClC1CC[N-]CC1.[Cl][Pt+2]([Cl])([Cl])[Cl]`, for which the survivor count (T/C endpoint: mean survival time, dose: 50.0 mg/kg/injection, schedule: Q01DX009 (ip), vehicle: water) is listed as 1 of 6; the survivor count (T/C endpoint: mean survival time, dose: 100.0 mg/kg/injection, schedule: Q01DX009 (ip), vehicle: water) is recorded as 1 of 6; the survivor count (T/C endpoint: mean survival time, dose: 200.0 mg/kg/injection, schedule: Q01DX009 (ip), vehicle: water) is recorded as 0 of 6.
For the compound `COc1ccc(C(SCC(N)C(=O)O)(c2ccccc2)c2ccc(OC)cc2)cc1` (stereo unspecified), the T/C (T/C endpoint: mean survival time, dose: 25.0 mg/kg/injection, schedule: Q01DX009 (ip), vehicle: saline) is 134 % of control. Further, the survivor count runs as follows: (T/C endpoint: mean survival time, dose: 50.0 mg/kg/injection, schedule: Q01DX009 (ip), vehicle: saline) 4 of 6; under setting [14], 4 of 6; under setting [1], 0 of 6; (T/C endpoint: mean survival time, dose: 400.0 mg/kg/injection, schedule: Q01DX009 (ip), vehicle: saline) 0 of 6.
As to `Nc1ccc(N)cc1`, the survivor count under setting [7] was 0 of 6, the survivor count under setting [8] is listed as 0 of 6 and the survivor count under setting [9] is listed as 0 of 6.
Take `Cc1ccccc1CN1C2=NCCN2C(=O)C2=C1CCN(S(=O)(=O)c1ccc(Cl)c(S(N)(=O)=O)c1)C2`: the survivor count (T/C endpoint: median survival time, dose: 200.0 mg/kg/injection, schedule: Q01DX009 (ip), vehicle: saline) is reported as 6 of 6.
As for `CC1=CC(c2ccccc2)(c2ccccc2)c2ccccc21`, under setting [6], the survivor count is on record as 6 of 6.
Regarding `CN(C)N=Nc1ccc(S(N)(=O)=O)cc1`, the T/C (T/C endpoint: mean survival time, dose: 75.0 mg/kg/injection, schedule: Q01DX009 (ip), vehicle: Klucel (hydroxypropylcellulose) (HPC)) was 140 % of control. In addition, the survivor count (T/C endpoint: mean survival time, dose: 300.0 mg/kg/injection, schedule: Q01DX009 (ip), vehicle: Klucel (hydroxypropylcellulose) (HPC)) is on record as 5 of 6.
As for `NC(=S)N/N=C1\c2cc(Cl)ccc2-c2c1cc(Cl)cc2[N+](=O)[O-]`, the survivor count is listed as 0 of 4 (T/C endpoint: mean survival time, dose: 200.0 mg/kg/injection, schedule: Q01DX001 (ip), vehicle: carboxymethylcellulose (CMC)) and 0 of 4 (T/C endpoint: mean survival time, dose: 400.0 mg/kg/injection, schedule: Q01DX001 (ip), vehicle: carboxymethylcellulose (CMC)).

(Values after PubChem BioAssay AID256 (DTP/NCI, 2004).)
